The DeepSol protein solubility set

Test: soluble on expression in E. coli; label from the status in PepcDB or PDB records

Sequence | soluble on expression in E. coli
AIAKIIVGIGGVTNGGKTTLTNKLINSLPNCCVVHQDDFFKPQDKIEVEDGFKQYDVITALDMEAMMSTIDGWQKDPAKFERSHGINNELDSEAPQDAEKREILHILIVEGFLLYTYKPLIDLFTKCYFLSVPYDECKRRRSSRNYTVPDPPGLFDGHVWPMYIKHKNIMEELTVNVEQLDGTNTREELFNRVYGDILDLINSKE | soluble
AMTAGTTTTFPMSNHTRERVTVAKLTLENFYSNLILQHEERETRQKKLEVAMEEEGLADEEKKLRRSQHARKETEFLRLKRTRLGLDDFESLKVIGRGAFGEVRLVQKKDTGHIYAMKILRKSDMLEKEQVAHIRAERDILVEADGAWVVKMFYSFQDKRNLYLIMEFLPGGDMMTLLMKKDTLTEEETQFYISETVLAIDAIHQLGFIHRDIKPDNLLLDAKGHVKLSDFGLCTGLKKAHRTEFYRNLTHNPPSDFSFQNMNSKRKAETWKKNRRQLAYSTVGTPDYIAPEVFMQTGYNKLCDWWSLGVIMYEMLIGYPPFCSETPQETYRKVMNWKETLVFPPEVPISEKAKDLILRFCIDSENRIGNSGVEEIKGHPFFEGVDWEHIRERPAAIPIEIKSIDDTSNFDDFPESDILQPVPNTTEPDYKSKDWVFLNYTYKRFEGLTQRGSIPTYMKAGKL | soluble
GAMAEMDPVAEFPQPPGAARWAEVMARFAARLGAQGRRVVLVTSGGTKVPLEARPVRFLDNFSSGRRGATSAEAFLAAGYGVLFLYRARSAFPYAHRFPPQTWLSALRPSGPALSGLLSLEAEENALPGFAEALRSYQEAAAAGTFLVVEFTTLADYLHLLQAAAQALNPLGPSAMFYLAAAVSDFYVPVSEMPEHKIESSGGPLQITMKMVPKLLSPLVKDWAPKAFIISFKLETDPAIVINRARKALEIYQHQVVVANILESRQSFVLIVTKDSETKLLLSEEEIEKGVEIEEKIVDNLQSRHTAFIGDRN | soluble
GSMLSPKDILRKDLKLVHGYPMTCAFASNWEKIEQFHSRPDDIVIATYPKSGTTWVSEIIDMILNDGDIEKCKRGFITEKVPMLEMTLPGLRTSGIEQLEKNPSPRIVKTHLPTDLLPKSFWENNCKMIYLARNAKDVSVSYYHFDLMNNLQPFPGTWEEYLEKFLTGKVAYGSWFTHVKNWWKRKEEHPILFLYYEDMKENPKEEIKKIIRFLEKNLNDEILDRIIHHTSFEVMKDNPLVNYTHLPTTVMDHSKSPFMRKGTAGDWKNYFTVAQNEKFDAIYETEMSKTALQFRTEI | soluble
MASKNTSVVLGDHFQAFIDSQVADGRYGSASEVIRAGLRLLEENEAKLAALRAALIEGEESGFIEDFDFDAFIEERSRASAPQGFHEE | soluble
MCNLYRMEDKDWVSKWAQDAESLINLMPAYQMNPDQMGPIVRNTADGKKQLVHARWGLPSPIFVQKKAAEARADKLKAKGKAFDINELIRMEPDRGVTNVRKLNLPHWTRWFGVEHRCLVPVTSFAEPDPASKQEGGNVPNAWFARDEAKSLMFFAGIHVPQWKSVRKVRDGLTTDDLYGFLTTDPNDLVKPIHEKAMPVLLLTREETEIWMRAPWDEAKHLARPLPNDALIILSREPYGSSIVSKSGESEEQGRLLAAALEHHHHHH | soluble
MENRALDPGTRDSYGATSHLPNKGALAKVKNNFKDLMSKLTEGQYVLCRWTDGLYYLGKIKRVSSSKQSCLVTFEDNSKYWVLWKDIQHAGVPGEEPKCNICLGKTSGPLNEILICGKCGLGYHQQCHIPIAGSADQPLLTPWFCRRCIFALAVRVSLPSSPVPASPASSSGADQRLPSQSLSSKQKGHTWALETDSASATVLGQDL | soluble
MGSDKIHHHHHHMLRVTTLASSCTSFPLQVLRRRLTISSLTSFQPTTKTQVVVIGAGHAGCEAAAASSRTGAHTTLITPSLTDIGKCSCNPSIGGVGKGILVKEIDALDGLMGKVTDLAGVQFKMLNRSKGPAVWGPRAQIDRELYKKYMQRELSDKKAHPNLSLLQNKVADLILYDPGCGHKVIKGVVLDDGTQVGADQVIITTGTFLSAEIHIGDKRIAAGRIGEQPTYGISNTLQNEVGFQLGRLKTGTPARLAKESIDFSALEVQKGDALPVPMSFLNETVSVEPTKQLDCFGTHTTPQMHDFLRNNLHQSIHIQDTTIKGPRYCPSIEAKILRFPDRSSHKIWLEPEGFNSDVIYPNGISNSMPEDVQLQMMRLIPGMANVEILQPAYGVEYDYVDPRQLKPSLETKLVDGLFLAGQINGTTGYEEAAAQGIIAGINAGLLSRQEREQLVLKRSEAYIGVLIDDLINNGVIEPYRMFTSRSEFRISVRADNADFRLTPIGAQLGIISPVRLSQYSRDKHLYDETIRALQNFKLSSQKWSSLLQANIAPQAENRSAWEIFRFKDMDLHKLYECIPDLPINLLDIPMHVVTKINIQGKYEPYIVKQNQFVKAFQADENMLLPQDYDYRQLPTLSTECKLLLNRVQPLTIGQARRIQGITAAALFELYRVARSQANQSCKYPLIVSLYM | not soluble
MGSDKIHHHHHHMPAKLNSPSRYHGIYNAPHRAFLRSVGLTDEEIGKPLVAIATAWSEAGPCNFHTLALARVAKEGTKEAGLSPLAFPTMVVNDNIGMGSEGMRYSLVSRDLIADMVEAQFNAHAFDGLVGIGGCDKTTPGILMAMARLNVPSIYIYGGSAEPGYFMGKRLTIEDVHEAIGAYLAKRITENELYEIEKRAHPTLGTCSGLFTANTMGSMSEALGMALPGSASPTATSSRRVMYVKETGKALGSLIENGIKSREILTFEAFENAITTLMAMGGSTNAVLHLLAIAYEAGVKLTLDDFNRISKRTPYIASMKPGGDYVMADLDEVGGVPVVLKKLLDAGLLHGDVLTVTGKTMKQNLEQYKYPNVPHSHIVRDVKNPIKPRGGIVILKGSLAPEGAVIKVAATNVVKFEGKAKVYNSEDDAFKGVQSGEVSEGEVVIIRYEGPKGAPGMPEMLRVTAAIMGAGLNNVALVTDGRFSGATRGPMVGHVAPEAMVGGPIAIVEDGDTIVIDVESERLDLKLSEEEIKNRLKRWSPPSPRYKSGLLAKYASLVSQASMGAVTRPA | not soluble
MGSDKIHHHHHHMSQTTSIMEHDQLNSGIYCGKINHRRHTPKLHSFGYNIAMMAIDLDELPALTAVSKLFSTDKFTPLKFNPSDYLNSLKQQFGDQLMLSSASRGDDAGALKQRVLATIKHLGATQTCDKVIFSGQIRHFGFYFSPVNFYFCYHQNDMVYMLAEVSNTPWNERHCYLVDIANTAQTDKVFHVSPFMNLDMHYLWRITPPAKHLKVTIENRNANNDKLFDAGLVLKRQSINSSSIRRFMLNYPLMTSKIMLGIYWQAMKLFFKRIPFVSKQTIKAN | not soluble
MNCDTAQPWMMSSYHPSTTSDVFWTTTPSSTSTTPSSDNGIQQYSSISTSSGYAPANSPAKTAEVNQLGGVFVNGRPLPFEMRCKIVELSRQGTRPCDISRQLKISHGCVSKILTRFSENGTIMPGTIGGSRPRVTTPKVVEYIRSLKRSDPGIFAWEIRDRLISADICDRANLPSVSSISRILRNKNGGNSSSSSSSQLRYIRDQLAEQQQQQHLQQHQYMEYNNNELNQISGNLDYQVSSSNTPPSYDSYHFIAN | not soluble
MPFKRTKVKLKKEIVTMGVDGIDPKRIVGTYVEPQQWNDLISDPDVVLVDTRNQYEVEIGTFKNAVNPATDTFREFPEYVKQNLDPQKHKKVAMFCTGGIRCEKSTAYLKEQGFEEVYHLKGGILKYLEEVPQLEHHHHHH | not soluble
MQKNIPSISCSPFPASRKIYQQSPLFSDVQVPLREISLTDGSAEKSLNIYDTSGPYTDNDIIIDITNGLPAISLPWLSKRADTEPYPARPVKPEDNGLLYDKTPPPAFKQKRPILRAKNGKAITQMAYARAGIITAEMEYVAIRENEGLTVKDQPKAQPDKICNGSIPEIYTAEFVRNEIACGRAIIPHNINHPECEPMIIGRNFRVKINANIGNSAVTSSMAEEVDKMVWAIRWGADTVMDLSTGRNIHNIREWIIRNSPVPIGTVPLYQALEKVQGIAENLTWDIFRDTLIEQAEQGVDYFTIHAGLRLPFIPLTIDRITGIVSRGGSIMAKWCLHHHKESFLYEHFDEICDIARTYDISLSLGDGLRPGSIADANDEAQFAELKTLGELTKVAWAKDVQVMIEGPGHVPMHKIKENMEQQLDLCHEAPFYTLGPLTTDIAPGYDHITSAIGAAMIGWFGTAMLCYVTPKEHLGLPDKNDVKTGVITYKIAAHAADLAKGLPRAQLRDNALSRARFDFRWYDQFNLSLDPETACAFHDETMPKEAHKLVHFCSMCGPKFCSMRISHDIRDTVHRKIKDEGMVAMAEKYQKNGDLYIDVSPPQKKIVNH | not soluble
MSDIQHQRMVTLCDDLKFLAVTDVYADLADAAAKQESSYIDYLEQVLKAENDVRQGRSRHTMAKLAGFPAIKTLEDYDFDFATGAPKQRILDLSAMAFLERRENVILLGPSGTGKTHLAIALGYRATQCGVKVRFISAADLMLQLESAQRQGRYKEVMRRSVLGPRLLIIDEIGYLPFSETQANLFFQVIAKRYETGSVILTSNLSFGEWEQAFGGNTALTSAMLDRLLHHAHVIQIRGDSYRLKEKRRAGILGQQLPTPQMDDLEHHHHHH | soluble
MSGGLAPSKSTVYVSNLPFSLTNNDLYRIFSKYGKVVKVTIMKDKDTRKSKGVAFILFLDKDSAQNCTRAINNKQLFGRVIKASIAI | soluble
MSLATPGCREGETYDVVVLGAGPVGQNVADRARAGGLRVAVVERELVGGECSYWACVPSKALLRPVIAISDARRVDGAREAVDGSINTAGVFGRRNRYVAHWDDTGQADWVSGIGATLIRGDGRLDGPRRVVVTKSSGESVALTARHAVVICTGSRPALPDLPGITEARPWTNRQATDNSTVPDRLAIVGAGGVGVEMATAWQGLGASVTLLARGSGLLPRMEPFVGELIGRGLADAGVDVRVGVSVRALGRPNPTGPVVLELDDGTELRVDEVLFATGRAPRTDDIGLETIGLTPGSWLDVDDTCRVRAVDDGWLYAAGDVNHRALLTHQGKYQARIAGTAIGARAAGRPLDTTSWGMHATTADHHAVPQAFFTDPEAAAVGLTADQAAQAGHRIKAIDVEIGDVVMGAKLFADGYTGRARMVVDVDRGHLLGVTMVGPGAAELLHSATVAVAGQVPIDRLWHAVPCFPTISELWLRLLESYRDSFYLLVEGHHHHHH | soluble
MSLGDLKLWYKQPAGTWVEALPVGNSRMGAMVYGGTAREELQLNDETMWGGSPYRNDKPEALESLPQVRELIFAGKNMEAQNLIQENFYAGKHGMPYQTIGSLIIETPGHEKVTDYYRDLDLERAVATTRYKVDGVTFQREVFASFPDKVVVVRLTADRPGKLNFKVGYVSPLEHKVSRKGKKLVLTGKGRDHEGVKGLIRMETQTQADVDGGKVKIDDQNITVEGADSVTLYVSSGTNFINYHDISGNESKKASGYLSLALGRPYSQVLQEHIALYKEQFDRVRLDLGTSERAKLETVKRIELFNEGKDVSLAVLLFQYGRYLLISSSQPGGQPANLQGIWNNKLAAPWDGKYTININTEMNYWPAEVTNLSETHQPLFEMVKELSVTGRETARTMYGCNGWVAHHNTDIWRATGPVDKAFYGTWPMGGAWLTTHLWQHYLYSGDKLFLSEAYPALKGAADFYLDYLTEHPEYGWMVTAPSMSPEHGPSGEDTKKASTIVSGCTMDNQIIFDVLSNALHASRILKMSASYQDSLRSMLNRLAPMQIGKYNQLQEWLEDLDNPNDKHRHISHVYGLFPSNQISPYTHPLLFQAAKNTLLQRGDEATGWSIGWKVNLWARLLDGNHAFRIINNMLKLLPGDEVKEAYPQGRTYPNLFDAHPPFQIDGNFGYTAGVAEMLLQSHDGAVHLLPALPDAWATGSVQGLVARGGFVVDMNWNGVQLDKAKIHSRLGGNLRLRSYVPLRGVGLKEAKGKNPNEYYMQADIKEPLVSKEINPQYPALYKVYEYDLMTEQGQDYIVERGEGHHHHHH | soluble
